Experimental findings from paper PMC7819943, “Rice protein-binding microarrays: a tool to detect cis-acting elements near promoter regions in rice” are described below.

The chains behind the UniProt entries cited, without tags or fusion partners.
UniProt Q0JBA9, entry or part of it: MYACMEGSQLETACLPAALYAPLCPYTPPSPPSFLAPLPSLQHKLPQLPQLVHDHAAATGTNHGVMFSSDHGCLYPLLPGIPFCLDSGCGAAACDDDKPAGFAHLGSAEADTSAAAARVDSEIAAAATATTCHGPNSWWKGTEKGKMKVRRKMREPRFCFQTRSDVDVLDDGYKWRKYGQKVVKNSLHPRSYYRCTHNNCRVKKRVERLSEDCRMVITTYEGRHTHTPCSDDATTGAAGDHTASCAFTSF

The other results are listed elsewhere or left out.

For this test, the target named is OsWRKY34 (Oryza sativa, UniProt Q0JBA9 1-250). The experiment in a line: protein-binding microarray (RPBM); PBS, 2% BSA, 51.3 ng/ul salmon testes DNA, 50 uM zinc acetate, 200 nM TF, 25 C, 1 h; high values mean tight binding. The note with it: protein: recombinant; tags: N-terminal polyhistidine and DsRed monomer fusion (pET32a); label: CyDye5-dUTP incorporated in the synthesized complementary strand; 3' TTTTT single-stranded linker to array surface; dsDNA, one strand shown. The method, boiled down:
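Ni–NTA purification followed expression in E. coli BL21-CodonPlus of transcription factors fused N-terminally to a polyhistidine tag and DsRed. At 200 nM in PBS with 2% BSA, salmon testes DNA and 50 µM zinc acetate, the protein was incubated for 1 h at 25 °C with a custom Agilent array that had been primer-extended with Cy5-dUTP and blocked with 2% BSA. After washing, the array was read on an Axon 4000B scanner. The binding signal is per-feature fluorescence intensity in arbitrary units.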
For the sequence “GACAGCGTGAATTCGAGGGATTTCTTGGCTGGTTTGGTTGCGGAGTCACCTAGTGCAG”, the binding signal is 10100 fluorescence intensity (a.u.).

As to “CTTTTCTCTCCCTATTTCTCAGGGATCATTCTGTAATTTCCGGAGTCACCTAGTGCAG”, the binding signal was 8840 fluorescence intensity (a.u.).

Take “GAACATAACCAACTATAACTTCATTCATTCATACAAATATCGGAGTCACCTAGTGCAG”: the binding signal is 8260 fluorescence intensity (a.u.).

With “TCTGGTGTTTTCAGTTCTTCATGTCATTTTCATTTTATTGCGGAGTCACCTAGTGCAG”, the binding signal is 11100 fluorescence intensity (a.u.).

With “ACCCAGTGGCAGGCATCTTTTCATTATCTGATTAGTTTGTCGGAGTCACCTAGTGCAG”, the binding signal was 8070 fluorescence intensity (a.u.).

With “AAGTCCATTTTCGATCTAGAAGCTCACAGTTTCTTTTCTACGGAGTCACCTAGTGCAG”, the binding signal is 9000 fluorescence intensity (a.u.).

“GGGTTTGGGGATCGATTGATTTATAGGCTTTTTTGTTTTTCGGAGTCACCTAGTGCAG”: the binding signal was 8810 fluorescence intensity (a.u.).

Take “AATGATTACACTTACCCTTTGTTACCGAAGTTTTACTTTACGGAGTCACCTAGTGCAG”: the binding signal was 8050 fluorescence intensity (a.u.).

Consider “GTACTTGCTTAAGCTCCTCTTCTTCCCTTGACTCCTCTTCCGGAGTCACCTAGTGCAG”, for which the binding signal was 8110 fluorescence intensity (a.u.).

Turning to “TTTTCCTAGCAGACTCATCATTTTGCTCACCTGCTCTGTGCGGAGTCACCTAGTGCAG”, the binding signal was 8150 fluorescence intensity (a.u.).

In the case of “TTATATATATTACATGTTAATACAACTTCTTATATTTTTTCGGAGTCACCTAGTGCAG”, the binding signal was 10700 fluorescence intensity (a.u.).

On to “GACTTGTTCTTTTTGTTGTACGTGCGTGTCAGGGTCAAACCGGAGTCACCTAGTGCAG”, for which the binding signal is 9710 fluorescence intensity (a.u.).

Take “CTAATCAGTGATAAACACACACTTTAAGCCACGTATCTTTCGGAGTCACCTAGTGCAG”: the binding signal was 8050 fluorescence intensity (a.u.).

On to “ATGCACTGCACCTGGAGCTTCTTTCTTCTTTTCTTCCGGCCGGAGTCACCTAGTGCAG”, for which the binding signal was 8780 fluorescence intensity (a.u.).

For the sequence “AATCACCTCGACCTATGAAATTACTCAGCTTGCAGCAATGCGGAGTCACCTAGTGCAG”, the binding signal was 8220 fluorescence intensity (a.u.).

As for “GAGGCGGAGGAGGGGCGGCGCCAGCATCATTGGCGGGCTTCGGAGTCACCTAGTGCAG”, the binding signal was 9080 fluorescence intensity (a.u.).

As to “AATACTCTTGAGCCCTCTAATATCTTGGAACATTTTTTTTCGGAGTCACCTAGTGCAG”, the binding signal was 8120 fluorescence intensity (a.u.).

Take “CCGACTCTCCGCCCTCGTAATCACGCGCTAATCCGTCGTTCGGAGTCACCTAGTGCAG”: the binding signal was 10400 fluorescence intensity (a.u.).

For “TCAAGTTCTTGTGAGTTGTTTGGCTTGATTGGCTTGACTCCGGAGTCACCTAGTGCAG”, the binding signal was 12000 fluorescence intensity (a.u.).

As to “CTCTCATCTCAGCCTCTCACTTGAACTGCAGATATATATACGGAGTCACCTAGTGCAG”, the binding signal is 8140 fluorescence intensity (a.u.).

As to “CGTCCGTCTCCATCTGACACCTCCCAGTGCTTGCGCCCATCGGAGTCACCTAGTGCAG”, the binding signal was 8030 fluorescence intensity (a.u.).

On to “ACATTCTCTGTTGCCGATTTGTTCGCTTGCCGTGAGTATCCGGAGTCACCTAGTGCAG”, for which the binding signal is 11400 fluorescence intensity (a.u.).

On to “GTTTCTTTTCTCCGTTTCTCGCCTCGTCCCCTTCCACACGCGGAGTCACCTAGTGCAG”, for which the binding signal was 9070 fluorescence intensity (a.u.).

On to “AAATATCATACGTTATTAGGTTTGTTTATATTTATATTTTCGGAGTCACCTAGTGCAG”, for which the binding signal was 8940 fluorescence intensity (a.u.).

Regarding “GCGTTAACTTTTTTAAATATGTTTTACTGTTCGTCTTATTCGGAGTCACCTAGTGCAG”, the binding signal was 9520 fluorescence intensity (a.u.).

On to “GCAGTCTTACATATTCATGTCACTACGCAGCAACGGACAACGGAGTCACCTAGTGCAG”, for which the binding signal is 9150 fluorescence intensity (a.u.).

Consider “GACACTTTCACTAATCACAGCTCACTTCAGCTCGCTCGCTCGGAGTCACCTAGTGCAG”, for which the binding signal was 9790 fluorescence intensity (a.u.).

In the case of “CCTCGTCCACCAACGCCGAGGCCATCGCCACCCAGCCCTACGGAGTCACCTAGTGCAG”, the binding signal is 8860 fluorescence intensity (a.u.).

On to “ATACCACCTCGCCCACCCTCCGGTATATATTGAAACTATTCGGAGTCACCTAGTGCAG”, for which the binding signal is 8600 fluorescence intensity (a.u.).

Take “CCACTTCTTTTTTTCCCGCTGCGCCGTGGGCCCCACTACTCGGAGTCACCTAGTGCAG”: the binding signal is 11400 fluorescence intensity (a.u.).

In the case of “GCGTGCGTGTGCGTGTCCACCCTGATCGCCGTTGGATCTCCGGAGTCACCTAGTGCAG”, the binding signal was 8260 fluorescence intensity (a.u.).

For “GAACCCATCTTTTCTTTGATCCCCAATCCTCTTTTGCCGACGGAGTCACCTAGTGCAG”, the binding signal is 10800 fluorescence intensity (a.u.).

Consider “GCAAACGATGTCTCTCGACAGTATTGTGTTCTGTTTTAGCCGGAGTCACCTAGTGCAG”, for which the binding signal was 8620 fluorescence intensity (a.u.).

“TCAATTGTCATGCGTTCGTTTTTCTTTCTCGTTGCCTTTCCGGAGTCACCTAGTGCAG”: the binding signal was 10800 fluorescence intensity (a.u.).

With “ACTCCTCTCTGTCTTCTCTGTGTGGGTGAGGCGGGGCATGCGGAGTCACCTAGTGCAG”, the binding signal is 14600 fluorescence intensity (a.u.).

On to “CCTCCATGCTCGCCATCGCCTGCCTTCCTGCCTTCAAACTCGGAGTCACCTAGTGCAG”, for which the binding signal was 8570 fluorescence intensity (a.u.).

As for “CACGCACCGCCCATGCGTCCTTATCCACCCACCTCTCCACCGGAGTCACCTAGTGCAG”, the binding signal was 8240 fluorescence intensity (a.u.).

Take “CTCCGCCCGCACCCGTCGCTGCTCTGTGCCGCACTCGCCGCGGAGTCACCTAGTGCAG”: the binding signal is 8580 fluorescence intensity (a.u.).

For the sequence “ACTTTGTTGTTGATGACTTTTTCAGTTGAAGTCGTTCACTCGGAGTCACCTAGTGCAG”, the binding signal was 8840 fluorescence intensity (a.u.).

For “ACCACGCCACGCCCGCCGCCACCTGCGCCGCGCTCGCCCCCGGAGTCACCTAGTGCAG”, the binding signal is 8160 fluorescence intensity (a.u.).

With “TCCTTACTTTACTTTCTTTGTGATCACTTACGGTTTGGCACGGAGTCACCTAGTGCAG”, the binding signal is 11700 fluorescence intensity (a.u.).

For the sequence “TTCCTCTGGATTTGGATTGGAATTGTGTTCTTAGTTTTTTCGGAGTCACCTAGTGCAG”, the binding signal was 9370 fluorescence intensity (a.u.).
